Reference: the supplement of paper PMC10849652
The list shows a part of the results.

Protein sequences, listed by entry. Tags and fused reporters are not part of them. Lines headed by an entry give the natural chain unless they say otherwise; changes in a name come on top.
UniProt Q969V3: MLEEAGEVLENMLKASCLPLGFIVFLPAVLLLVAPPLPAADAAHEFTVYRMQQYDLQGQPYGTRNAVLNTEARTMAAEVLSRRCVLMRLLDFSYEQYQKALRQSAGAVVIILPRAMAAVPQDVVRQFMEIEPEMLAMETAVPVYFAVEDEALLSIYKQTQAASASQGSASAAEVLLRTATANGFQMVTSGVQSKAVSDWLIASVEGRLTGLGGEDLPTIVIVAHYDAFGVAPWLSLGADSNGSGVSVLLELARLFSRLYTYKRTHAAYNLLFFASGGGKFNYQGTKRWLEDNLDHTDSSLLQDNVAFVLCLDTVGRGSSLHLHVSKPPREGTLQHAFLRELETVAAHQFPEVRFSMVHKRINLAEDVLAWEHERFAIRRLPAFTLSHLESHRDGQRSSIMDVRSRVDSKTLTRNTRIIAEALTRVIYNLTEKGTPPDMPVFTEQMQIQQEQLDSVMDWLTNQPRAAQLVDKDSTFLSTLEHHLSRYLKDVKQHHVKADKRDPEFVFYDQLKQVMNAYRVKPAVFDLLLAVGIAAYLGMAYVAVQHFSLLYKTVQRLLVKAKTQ
UniProt P11055, whole entry, looked up: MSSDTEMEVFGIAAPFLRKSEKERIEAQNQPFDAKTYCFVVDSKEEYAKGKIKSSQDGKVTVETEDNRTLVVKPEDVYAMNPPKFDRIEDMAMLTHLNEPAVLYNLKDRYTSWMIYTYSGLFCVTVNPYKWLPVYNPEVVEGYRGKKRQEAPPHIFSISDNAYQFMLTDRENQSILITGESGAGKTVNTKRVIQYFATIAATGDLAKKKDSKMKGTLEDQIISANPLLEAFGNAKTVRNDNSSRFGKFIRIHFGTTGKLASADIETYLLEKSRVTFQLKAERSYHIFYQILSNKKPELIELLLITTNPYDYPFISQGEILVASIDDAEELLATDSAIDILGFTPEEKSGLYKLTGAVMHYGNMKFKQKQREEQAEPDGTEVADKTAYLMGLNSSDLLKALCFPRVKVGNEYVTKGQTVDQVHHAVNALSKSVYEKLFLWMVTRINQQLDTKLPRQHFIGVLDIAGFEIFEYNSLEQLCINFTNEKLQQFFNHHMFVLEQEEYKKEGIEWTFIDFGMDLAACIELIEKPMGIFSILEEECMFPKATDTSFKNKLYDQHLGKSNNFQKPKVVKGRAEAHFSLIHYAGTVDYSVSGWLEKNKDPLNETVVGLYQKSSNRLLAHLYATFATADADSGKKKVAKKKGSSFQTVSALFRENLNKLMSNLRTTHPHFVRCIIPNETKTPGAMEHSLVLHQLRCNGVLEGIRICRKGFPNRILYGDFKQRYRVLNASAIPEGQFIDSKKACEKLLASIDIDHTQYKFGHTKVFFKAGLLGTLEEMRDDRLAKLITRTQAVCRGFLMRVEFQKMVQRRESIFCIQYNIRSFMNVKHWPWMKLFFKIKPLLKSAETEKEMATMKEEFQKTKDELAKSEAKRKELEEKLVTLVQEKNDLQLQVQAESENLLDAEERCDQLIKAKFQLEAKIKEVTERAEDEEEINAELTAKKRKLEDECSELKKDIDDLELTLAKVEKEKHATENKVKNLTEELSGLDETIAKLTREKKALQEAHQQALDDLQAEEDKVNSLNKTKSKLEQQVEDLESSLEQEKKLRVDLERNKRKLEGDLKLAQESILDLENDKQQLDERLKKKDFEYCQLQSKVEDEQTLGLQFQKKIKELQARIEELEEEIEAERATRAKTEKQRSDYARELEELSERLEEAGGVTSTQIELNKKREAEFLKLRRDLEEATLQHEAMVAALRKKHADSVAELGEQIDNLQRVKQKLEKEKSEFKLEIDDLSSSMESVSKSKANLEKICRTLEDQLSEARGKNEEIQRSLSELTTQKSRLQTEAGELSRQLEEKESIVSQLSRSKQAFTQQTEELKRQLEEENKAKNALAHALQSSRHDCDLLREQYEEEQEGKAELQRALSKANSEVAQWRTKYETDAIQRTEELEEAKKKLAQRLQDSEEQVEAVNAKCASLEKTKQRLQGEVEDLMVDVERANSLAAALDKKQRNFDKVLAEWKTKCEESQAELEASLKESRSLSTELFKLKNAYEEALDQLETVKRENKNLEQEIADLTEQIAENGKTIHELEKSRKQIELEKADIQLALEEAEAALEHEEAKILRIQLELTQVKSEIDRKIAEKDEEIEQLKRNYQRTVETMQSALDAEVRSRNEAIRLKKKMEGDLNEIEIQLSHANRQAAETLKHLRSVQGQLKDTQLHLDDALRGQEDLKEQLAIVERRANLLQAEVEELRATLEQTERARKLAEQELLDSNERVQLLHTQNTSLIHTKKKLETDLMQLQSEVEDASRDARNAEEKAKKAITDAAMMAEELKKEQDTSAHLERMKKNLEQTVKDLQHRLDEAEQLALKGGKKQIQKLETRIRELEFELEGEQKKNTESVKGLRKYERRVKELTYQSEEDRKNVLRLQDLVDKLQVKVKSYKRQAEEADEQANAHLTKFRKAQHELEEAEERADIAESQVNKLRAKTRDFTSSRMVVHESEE
UniProt P10244: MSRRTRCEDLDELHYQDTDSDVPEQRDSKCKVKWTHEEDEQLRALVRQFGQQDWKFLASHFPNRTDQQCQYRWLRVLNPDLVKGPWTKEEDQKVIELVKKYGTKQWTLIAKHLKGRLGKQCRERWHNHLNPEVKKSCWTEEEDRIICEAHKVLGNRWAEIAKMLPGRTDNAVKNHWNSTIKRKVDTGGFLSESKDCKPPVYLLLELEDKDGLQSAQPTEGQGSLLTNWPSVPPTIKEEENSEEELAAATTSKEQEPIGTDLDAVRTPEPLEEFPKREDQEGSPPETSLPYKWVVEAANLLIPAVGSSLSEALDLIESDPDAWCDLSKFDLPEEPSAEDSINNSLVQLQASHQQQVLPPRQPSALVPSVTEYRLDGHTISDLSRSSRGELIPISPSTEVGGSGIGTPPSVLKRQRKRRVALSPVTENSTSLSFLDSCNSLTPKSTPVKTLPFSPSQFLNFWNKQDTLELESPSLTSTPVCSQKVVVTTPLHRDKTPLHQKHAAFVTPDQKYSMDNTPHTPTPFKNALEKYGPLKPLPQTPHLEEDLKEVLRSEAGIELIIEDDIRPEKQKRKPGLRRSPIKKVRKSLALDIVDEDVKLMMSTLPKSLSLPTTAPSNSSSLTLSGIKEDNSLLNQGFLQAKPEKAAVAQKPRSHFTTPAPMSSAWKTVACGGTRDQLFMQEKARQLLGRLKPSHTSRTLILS
UniProt Q9BRK3: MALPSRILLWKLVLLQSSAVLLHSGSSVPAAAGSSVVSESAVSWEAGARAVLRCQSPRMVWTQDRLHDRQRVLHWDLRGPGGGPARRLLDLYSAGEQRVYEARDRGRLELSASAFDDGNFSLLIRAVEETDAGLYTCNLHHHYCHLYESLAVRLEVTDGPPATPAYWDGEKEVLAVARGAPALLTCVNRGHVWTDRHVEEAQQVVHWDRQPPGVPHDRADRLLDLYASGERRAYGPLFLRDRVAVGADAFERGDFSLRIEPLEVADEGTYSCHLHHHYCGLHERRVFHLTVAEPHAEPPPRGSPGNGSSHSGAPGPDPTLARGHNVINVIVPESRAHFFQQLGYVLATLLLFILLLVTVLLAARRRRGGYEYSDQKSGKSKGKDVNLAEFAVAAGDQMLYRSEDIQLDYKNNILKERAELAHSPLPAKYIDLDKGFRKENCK
UniProt Q96AH0: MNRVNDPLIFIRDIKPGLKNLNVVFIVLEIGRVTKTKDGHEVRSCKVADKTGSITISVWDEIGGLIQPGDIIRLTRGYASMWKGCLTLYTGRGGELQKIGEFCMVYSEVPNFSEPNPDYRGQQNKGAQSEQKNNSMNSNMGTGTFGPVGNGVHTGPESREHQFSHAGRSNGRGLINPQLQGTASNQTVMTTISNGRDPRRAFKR
UniProt P84157: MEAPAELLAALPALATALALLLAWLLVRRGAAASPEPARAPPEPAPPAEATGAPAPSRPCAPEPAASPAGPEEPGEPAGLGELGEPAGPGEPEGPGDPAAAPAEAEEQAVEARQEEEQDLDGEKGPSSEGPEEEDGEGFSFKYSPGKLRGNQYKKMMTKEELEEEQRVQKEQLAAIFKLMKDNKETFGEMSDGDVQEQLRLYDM
UniProt Q9HCH0: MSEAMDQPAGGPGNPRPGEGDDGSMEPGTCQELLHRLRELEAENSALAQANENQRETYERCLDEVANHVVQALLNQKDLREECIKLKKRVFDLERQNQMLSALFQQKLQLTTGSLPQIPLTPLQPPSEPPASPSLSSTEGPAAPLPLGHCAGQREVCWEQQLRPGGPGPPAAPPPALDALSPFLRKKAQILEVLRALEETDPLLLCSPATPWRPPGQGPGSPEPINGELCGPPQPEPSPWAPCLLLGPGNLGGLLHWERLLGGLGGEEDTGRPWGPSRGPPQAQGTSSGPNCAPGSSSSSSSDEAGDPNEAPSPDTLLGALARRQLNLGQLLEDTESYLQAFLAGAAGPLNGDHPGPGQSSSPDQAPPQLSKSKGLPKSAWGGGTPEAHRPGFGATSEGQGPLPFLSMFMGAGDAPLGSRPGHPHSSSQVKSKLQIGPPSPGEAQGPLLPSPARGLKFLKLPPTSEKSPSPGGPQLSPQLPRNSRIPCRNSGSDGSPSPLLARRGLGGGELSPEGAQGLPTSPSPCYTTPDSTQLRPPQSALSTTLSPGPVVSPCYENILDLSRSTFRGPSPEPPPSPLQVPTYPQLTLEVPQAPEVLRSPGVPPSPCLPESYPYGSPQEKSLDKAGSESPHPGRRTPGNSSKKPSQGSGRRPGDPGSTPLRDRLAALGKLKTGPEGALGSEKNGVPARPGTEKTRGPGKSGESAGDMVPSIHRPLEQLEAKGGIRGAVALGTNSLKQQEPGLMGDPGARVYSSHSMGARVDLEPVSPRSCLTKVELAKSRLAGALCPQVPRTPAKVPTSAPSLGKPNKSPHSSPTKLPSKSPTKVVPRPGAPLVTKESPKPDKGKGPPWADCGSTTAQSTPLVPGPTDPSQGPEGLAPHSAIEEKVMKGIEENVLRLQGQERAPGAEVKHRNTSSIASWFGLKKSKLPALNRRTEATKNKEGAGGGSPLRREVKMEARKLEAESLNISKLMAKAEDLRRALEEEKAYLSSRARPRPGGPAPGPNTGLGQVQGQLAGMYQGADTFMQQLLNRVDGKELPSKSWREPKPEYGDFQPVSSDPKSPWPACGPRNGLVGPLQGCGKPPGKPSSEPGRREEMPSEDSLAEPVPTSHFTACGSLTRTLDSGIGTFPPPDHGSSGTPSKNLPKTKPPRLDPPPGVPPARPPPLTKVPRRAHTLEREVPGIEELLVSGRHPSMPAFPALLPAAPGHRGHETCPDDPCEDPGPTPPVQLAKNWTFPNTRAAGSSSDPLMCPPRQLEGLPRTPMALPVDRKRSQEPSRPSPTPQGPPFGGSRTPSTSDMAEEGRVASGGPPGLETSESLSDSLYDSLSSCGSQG
UniProt Q13506: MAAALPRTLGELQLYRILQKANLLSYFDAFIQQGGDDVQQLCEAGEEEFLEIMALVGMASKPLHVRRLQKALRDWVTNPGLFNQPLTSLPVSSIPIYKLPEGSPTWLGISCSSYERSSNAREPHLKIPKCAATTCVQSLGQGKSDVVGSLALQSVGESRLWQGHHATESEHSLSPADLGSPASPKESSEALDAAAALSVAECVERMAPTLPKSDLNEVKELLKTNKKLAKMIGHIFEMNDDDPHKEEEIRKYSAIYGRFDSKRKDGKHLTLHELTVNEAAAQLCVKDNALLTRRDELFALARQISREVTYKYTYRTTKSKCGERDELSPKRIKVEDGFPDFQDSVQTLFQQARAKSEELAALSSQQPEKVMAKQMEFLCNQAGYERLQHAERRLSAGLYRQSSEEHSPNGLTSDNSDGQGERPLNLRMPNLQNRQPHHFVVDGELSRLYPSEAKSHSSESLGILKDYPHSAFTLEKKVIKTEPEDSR
UniProt P62166, whole entry, looked up: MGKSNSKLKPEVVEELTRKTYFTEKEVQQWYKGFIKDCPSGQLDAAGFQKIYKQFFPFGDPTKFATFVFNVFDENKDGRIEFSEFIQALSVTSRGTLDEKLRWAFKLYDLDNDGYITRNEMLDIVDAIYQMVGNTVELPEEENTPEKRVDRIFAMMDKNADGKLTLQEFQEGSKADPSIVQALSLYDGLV
UniProt Q8N6N6: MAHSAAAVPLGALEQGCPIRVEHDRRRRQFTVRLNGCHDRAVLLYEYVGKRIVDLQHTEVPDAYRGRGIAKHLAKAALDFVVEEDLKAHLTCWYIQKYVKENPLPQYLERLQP
UniProt P60660, whole entry, looked up: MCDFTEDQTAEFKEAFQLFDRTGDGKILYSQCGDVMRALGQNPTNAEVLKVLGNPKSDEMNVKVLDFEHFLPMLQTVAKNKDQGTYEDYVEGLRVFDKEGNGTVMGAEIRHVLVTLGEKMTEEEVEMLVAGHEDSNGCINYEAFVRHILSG
UniProt P19105: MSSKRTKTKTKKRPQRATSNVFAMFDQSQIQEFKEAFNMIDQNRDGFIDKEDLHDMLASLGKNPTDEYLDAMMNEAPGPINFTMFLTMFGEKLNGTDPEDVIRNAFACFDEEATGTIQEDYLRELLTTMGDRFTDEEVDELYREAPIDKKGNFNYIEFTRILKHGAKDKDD

Columns and labels:
Test in all cases: log2 fold change, soluble protein after heating vs DMSO (PISA); higher = thermal stabilisation; K562 lysate, 10 uM; active = over 0.2 and 3.5 SD of the protein, either way, in both replicates (recomputed)
lapatinib = compound: CS(=O)(=O)CCNCc1ccc(-c2ccc3ncnc(Nc4ccc(OCc5cccc(F)c5)c(Cl)c4)c3c2)o1 [lapatinib]
Outline: (§1)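 Quantification was by TMTpro 16plex LC-MS/MS with equalised channel sums, applied to the supernatant after 21,000xg for 90 min. Samples were crude K562 extract at 1 mg/mL protein in PBS pH 7.4 with 1 mM MgCl2, treated with 10 μM compound for 30 min, heated for 3 min across 48°C-58°C, pooled and brought to 0.5% NP-40 at 4°C. Values are log-two fold changes in thermal stability relative to solvent controls, from duplicates.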

[1] = compound: NC(=O)c1cnc(N[C@@H]2CCCC[C@@H]2N)nc1Nc1cccc(-n2nccn2)c1
Outline: as §1

crizotinib = compound: C[C@@H](Oc1cc(-c2cnn(C3CCNCC3)c2)cnc1N)c1c(Cl)ccc(F)c1Cl [crizotinib]
Outline: as §1

tozasertib = compound: Cc1cc(Nc2cc(N3CCN(C)CC3)nc(Sc3ccc(NC(=O)C4CC4)cc3)n2)n[nH]1 [tozasertib]
Outline: as §1

doramapimod = compound: Cc1ccc(-n2nc(C(C)(C)C)cc2NC(=O)Nc2ccc(OCCN3CCOCC3)c3ccccc23)cc1 [doramapimod]
Outline: as §1

quisinostat = compound: Cn1cc(CNCC2CCN(c3ncc(C(=O)NO)cn3)CC2)c2ccccc21 [quisinostat]
Outline: as §1

[2] = compound: NC(=O)Nc1cc(-c2cccc(F)c2)sc1C(=O)N[C@H]1CCCNC1
Outline: as §1

[3] = compound: C[C@H](C1=CC=C(C=C1)C(=O)NC2=C3C=CNC3=NC=C2)N
Outline: as §1

duvelisib = compound: C[C@H](Nc1ncnc2nc[nH]c12)c1cc2cccc(Cl)c2c(=O)n1-c1ccccc1 [duvelisib]
Outline: as §1

gandotinib = compound: Cc1cc(Nc2cc(CN3CCOCC3)c3nc(C)c(Cc4ccc(Cl)cc4F)n3n2)n[nH]1 [gandotinib]
Outline: as §1

[4] = compound: Cc1cccc(CC(=O)N2CCc3c2ccc(-c2cn(C)c4ncnc(N)c24)c3F)n1
Outline: as §1

dasatinib = compound: Cc1nc(Nc2ncc(C(=O)Nc3c(C)cccc3Cl)s2)cc(N2CCN(CCO)CC2)n1 [dasatinib]
Outline: as §1

[5] = compound: Cn1cc(-c2ccc3c(c2)CCN3C(=O)Cc2cccc(C(F)(F)F)c2)c2c(N)ncnc21
Outline: as §1

[6] = compound: NC1(c2ccc(-c3nc4ccn5c(=O)[nH]nc5c4cc3-c3ccccc3)cc2)CCC1
Outline: as §1

nilotinib = compound: Cc1cn(-c2cc(NC(=O)c3ccc(C)c(Nc4nccc(-c5cccnc5)n4)c3)cc(C(F)(F)F)c2)cn1 [nilotinib]
Outline: as §1

[7] = compound: Cc1nc(Nc2n[nH]c3c2CN(C(=O)N[C@H](CN(C)C)c2ccccc2)C3(C)C)c2sccc2n1
Outline: as §1

[8] = compound: Cc1ncc(-c2ccnc(Nc3ccc(S(C)(=O)=O)cc3)n2)n1C(C)C
Outline: as §1

tipifarnib = compound: Cn1cncc1[C@@](N)(c1ccc(Cl)cc1)c1ccc2c(c1)c(-c1cccc(Cl)c1)cc(=O)n2C [tipifarnib]
Outline: as §1

pictilisib = compound: CS(=O)(=O)N1CCN(Cc2cc3nc(-c4cccc5[nH]ncc45)nc(N4CCOCC4)c3s2)CC1 [pictilisib]
Outline: as §1

bafetinib = compound: Cc1ccc(NC(=O)c2ccc(CN3CC[C@H](N(C)C)C3)c(C(F)(F)F)c2)cc1Nc1nccc(-c2cncnc2)n1 [bafetinib]
Outline: as §1

Measured: log2 fold change

MYT1L (UniProt Q9UL68)
inactive: lapatinib -0.033 | [1] 0.035

NCLN isoform 2 (UniProt Q969V3)
inactive: crizotinib -0.234 | tozasertib 0.083 | doramapimod -0.217 | quisinostat 0.003 | [2] 0.154

MYH3 (UniProt P11055)
inactive: [3] 0.145 | duvelisib 0.106 | gandotinib -0.224 | [4] -0.208 | dasatinib -0.014 | [5] 0.053 | [6] -0.072

MYC isoform 2 (UniProt P01106)
inactive: [3] -0.02 | gandotinib 0.069 | [4] 0.028 | nilotinib -0.12 | [7] -0.086 | [8] 0.016 | tipifarnib -0.129

NCOA1 isoform 2 (UniProt Q15788)
inactive: lapatinib -0.088 | [3] -0.015 | duvelisib -0.037 | gandotinib -0.103 | [4] 0.005 | dasatinib -0.18 | [5] 0.179 | [1] 0.335 | [6] 0.27

MYBL2 (UniProt P10244)
inactive: crizotinib -0.018 | [3] 0.181 | duvelisib -0.011 | gandotinib -0.286 | tozasertib 0.001 | doramapimod 0.017 | [4] -0.184 | dasatinib -0.055 | [5] -0.012 | quisinostat -0.071 | [2] -0.021 | [6] -0.015

MYH7 (UniProt P12883)
inactive: pictilisib -1.97 | bafetinib -0.45

MXRA8 isoform 2 (UniProt Q9BRK3)
inactive: pictilisib -0.016 | bafetinib 0.024

MYOF (UniProt Q9NZM1)
inactive: duvelisib -0.058 | dasatinib 0.231 | [5] -0.129

NABP1 (UniProt Q96AH0)
inactive: tozasertib -0.135 | nilotinib -0.16 | [7] 0.003 | [8] -0.049 | tipifarnib -0.027

NAP1L1 (UniProt H0YHC3)
inactive: lapatinib 0.047 | [1] -0.071

NARS1 (UniProt K7ENF0)
inactive: crizotinib 0.133 | doramapimod -0.117 | quisinostat 0.074 | [2] 0.016

MXRA7 (UniProt P84157)
inactive: lapatinib -0.039 | crizotinib 0.103 | [3] -0.149 | duvelisib 0.056 | gandotinib -0.008 | tozasertib -0.05 | doramapimod 0.041 | [4] 0.096 | nilotinib -0.307 | [7] 0 | dasatinib 0.03 | [8] -0.202 | [5] -0.034 | quisinostat -0.069 | tipifarnib -0.006 | [2] 0.1 | [1] -0.078 | [6] -0.003

MYNN (UniProt Q9NPC7)
inactive: duvelisib -0.124 | dasatinib 0.02 | [5] -0.031 | [6] 0.149

NAA80 isoform 2 (UniProt Q93015)
inactive: nilotinib -0.075 | [7] 0.026 | [8] 0.011 | tipifarnib -0.036 | [6] 0.104

NAT14 (UniProt Q8WUY8)
inactive: crizotinib -0.096 | [3] -0.035 | duvelisib -0.059 | gandotinib 0.024 | tozasertib -0.067 | doramapimod -0.118 | [4] 0.069 | dasatinib 0.028 | [5] 0.082 | quisinostat -0.085 | [2] 0.022 | [6] -0.009

NCL (UniProt H7BY16)
inactive: pictilisib -0.117 | bafetinib 0.057 | nilotinib 0.07 | [7] 0.024 | [8] 0.036 | tipifarnib 0.211

NAMPT (UniProt C9JF35)
inactive: lapatinib -0.325 | [3] -0.313 | gandotinib 0.011 | [4] 0.118 | [1] 0.214 | [6] 0.057

NCKAP5L (UniProt Q9HCH0)
inactive: lapatinib 0.04 | crizotinib 0.008 | [3] 0.02 | duvelisib 0.164 | gandotinib -0.066 | tozasertib -0.124 | doramapimod -0.072 | [4] 0.065 | nilotinib 0 | [7] 0.02 | dasatinib 0.021 | [8] 0.01 | [5] -0.065 | quisinostat -0.021 | tipifarnib -0.079 | [2] 0.037 | [1] 0.034 | [6] -0.07

NAB1 (UniProt Q13506)
inactive: pictilisib -0.023 | crizotinib -0.016 | [3] -0.165 | duvelisib 0.068 | gandotinib 0.063 | doramapimod 0.075 | bafetinib -0.224 | [4] 0.026 | nilotinib 0.021 | [7] 0.06 | dasatinib 0.081 | [8] -0.007 | [5] 0.06 | quisinostat -0.069 | tipifarnib -0.002 | [2] 0.199 | [6] 0.243

NCS1 (UniProt P62166)
inactive: pictilisib -0.143 | crizotinib 0.029 | [3] -0.172 | duvelisib 0.07 | gandotinib 0.088 | tozasertib 0.009 | doramapimod -0.047 | bafetinib -0.029 | [4] 0.05 | nilotinib -0.003 | [7] 0.012 | dasatinib 0.014 | [8] 0.015 | [5] -0.004 | quisinostat -0.013 | tipifarnib 0.016 | [2] -0.003 | [1] -0.015 | [6] 0.037

Retrieved one by one from the list above (two):
NAB1 (UniProt Q13506)
inactive: pictilisib -0.023 | crizotinib -0.016 | [3] -0.165 | duvelisib 0.068 | gandotinib 0.063 | doramapimod 0.075 | bafetinib -0.224 | [4] 0.026 | nilotinib 0.021 | [7] 0.06 | dasatinib 0.081 | [8] -0.007 | [5] 0.06 | quisinostat -0.069 | tipifarnib -0.002 | [2] 0.199 | [6] 0.243

NCL (UniProt H7BY16)
inactive: pictilisib -0.117 | bafetinib 0.057 | nilotinib 0.07 | [7] 0.024 | [8] 0.036 | tipifarnib 0.211

(further entries)

NACC2 (UniProt Q96BF6)
inactive: crizotinib -0.006 | [3] 0.038 | duvelisib -0.002 | gandotinib 0.129 | tozasertib 0.088 | doramapimod 0.083 | [4] 0.021 | nilotinib -0.033 | [7] -0.393 | dasatinib 0.023 | [8] -0.086 | [5] 0.068 | quisinostat 0.168 | tipifarnib -0.064 | [2] -0.142 | [6] 0.126

NACA2 (UniProt Q9H009)
inactive: duvelisib 0.064 | dasatinib 0.064 | [5] 0.032

NATD1 (UniProt Q8N6N6)
inactive: pictilisib -0.097 | crizotinib -0.039 | [3] -0.076 | duvelisib 0.085 | gandotinib -0.026 | tozasertib 0.228 | doramapimod 0.028 | bafetinib 0.052 | [4] 0.025 | nilotinib -0.051 | [7] 0.013 | dasatinib -0.01 | [8] -0.042 | [5] -0.124 | quisinostat -0.101 | tipifarnib 0.15 | [2] 0.025 | [6] 0.032

NAP1L4 (UniProt C9JZI7)
inactive: lapatinib 0.225 | duvelisib 0.167 | dasatinib -0.256 | [5] 0.05 | [1] 0.08 | [6] 0.216

MYL6 isoform 2 (UniProt P60660)
inactive: lapatinib -0.012 | crizotinib -0.026 | [3] 0.04 | duvelisib -0.039 | gandotinib 0.143 | tozasertib -0.088 | doramapimod -0.032 | [4] 0.204 | nilotinib 0.106 | [7] -0.023 | dasatinib -0.023 | [8] 0.017 | [5] -0.056 | quisinostat 0.083 | tipifarnib 0.088 | [2] 0.071 | [1] -0.006 | [6] 0

MYL12A (UniProt P19105)
inactive: [3] 0.066 | gandotinib 0.14 | [4] -0.025 | [6] -0.055
